Results are given in words; binding and its absence hold for the method and conditions named.
Key:
[1] = biological target: T1, SR‐F1(20‐421), SR‐F1 ectodomain (human) (UniProt Q14162); test: SPR; soluble ligands (MalBSA 50-800 nM, BSA, AcBSA 1 µM, C1q-CLR and C1q-GR 500 nM) injected over immobilized SREC-II(44-442) or SR-F1(20-421); CM5, amine coupling; TBS pH 7.4, 2 mM CaCl2, surfactant P20 (TBS-Ca-P); 20 µL/min; 25 °C; both purified
T1 sequence: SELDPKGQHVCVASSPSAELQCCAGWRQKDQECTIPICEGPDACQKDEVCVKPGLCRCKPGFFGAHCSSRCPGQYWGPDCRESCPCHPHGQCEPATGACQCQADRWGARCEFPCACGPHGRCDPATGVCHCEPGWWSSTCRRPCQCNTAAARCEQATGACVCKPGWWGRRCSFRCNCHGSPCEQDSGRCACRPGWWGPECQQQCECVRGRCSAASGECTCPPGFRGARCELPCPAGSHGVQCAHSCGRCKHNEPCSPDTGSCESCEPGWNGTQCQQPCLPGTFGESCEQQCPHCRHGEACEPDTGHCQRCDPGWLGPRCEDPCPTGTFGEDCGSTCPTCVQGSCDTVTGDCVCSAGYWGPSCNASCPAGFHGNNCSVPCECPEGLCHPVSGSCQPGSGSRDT

By UniProt entry, the sequences of proteins in these tests, tags left out. Residues count along the entry.
UniProt Q96GP6, residues 44-871: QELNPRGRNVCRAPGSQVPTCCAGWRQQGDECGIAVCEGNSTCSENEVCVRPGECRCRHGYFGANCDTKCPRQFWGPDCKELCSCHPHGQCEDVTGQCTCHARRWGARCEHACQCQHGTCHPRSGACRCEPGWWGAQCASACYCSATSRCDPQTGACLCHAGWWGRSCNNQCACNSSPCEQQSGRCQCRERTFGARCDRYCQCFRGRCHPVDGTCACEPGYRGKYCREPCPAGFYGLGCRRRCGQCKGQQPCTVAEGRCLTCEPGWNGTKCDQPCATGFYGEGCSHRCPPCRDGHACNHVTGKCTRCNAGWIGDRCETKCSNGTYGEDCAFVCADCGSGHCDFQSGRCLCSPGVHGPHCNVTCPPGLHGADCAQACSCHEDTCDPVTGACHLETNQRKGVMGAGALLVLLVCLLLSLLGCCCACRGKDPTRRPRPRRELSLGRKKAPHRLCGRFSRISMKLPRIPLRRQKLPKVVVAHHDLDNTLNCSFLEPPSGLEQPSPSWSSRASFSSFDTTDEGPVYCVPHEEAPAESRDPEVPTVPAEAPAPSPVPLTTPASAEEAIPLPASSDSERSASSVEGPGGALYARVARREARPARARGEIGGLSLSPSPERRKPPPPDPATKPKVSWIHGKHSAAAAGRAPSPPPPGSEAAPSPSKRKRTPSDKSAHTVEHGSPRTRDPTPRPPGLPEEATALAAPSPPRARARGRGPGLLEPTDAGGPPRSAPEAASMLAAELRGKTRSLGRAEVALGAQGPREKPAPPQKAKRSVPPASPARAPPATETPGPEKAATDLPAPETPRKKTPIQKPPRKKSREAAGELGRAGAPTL
UniProt P02769, residues 25-607: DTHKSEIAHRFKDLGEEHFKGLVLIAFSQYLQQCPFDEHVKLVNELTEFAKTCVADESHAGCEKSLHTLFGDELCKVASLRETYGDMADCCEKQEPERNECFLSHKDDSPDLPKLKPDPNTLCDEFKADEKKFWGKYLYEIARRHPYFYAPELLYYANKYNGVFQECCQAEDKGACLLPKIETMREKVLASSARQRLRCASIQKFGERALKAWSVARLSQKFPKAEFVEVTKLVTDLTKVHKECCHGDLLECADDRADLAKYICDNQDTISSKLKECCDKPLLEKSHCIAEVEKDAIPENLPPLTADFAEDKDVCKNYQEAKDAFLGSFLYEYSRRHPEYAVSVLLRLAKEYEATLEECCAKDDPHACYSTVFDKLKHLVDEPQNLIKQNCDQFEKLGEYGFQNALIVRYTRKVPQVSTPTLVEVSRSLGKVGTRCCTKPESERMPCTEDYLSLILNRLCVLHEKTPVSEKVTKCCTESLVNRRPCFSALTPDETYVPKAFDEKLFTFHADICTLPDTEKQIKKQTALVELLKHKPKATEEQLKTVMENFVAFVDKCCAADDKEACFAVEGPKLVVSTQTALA

[2] = biological target: full‐length SREC‐II at the surface of stably transfected CHO cells (UniProt Q96GP6); test: flow cytometry on cells; SREC-II-overexpressing CHO cells against nontransfected CHO cells, on ice, PBS with 3% BSA; C1q 80 µg/mL (40 min, detected with anti-C1q and Cy-3 anti-mouse antibodies); Alexa Fluor 488-MalBSA or Alexa Fluor 568-CRT at 1, 5 and 10 µg/mL (30 min); MFI ratio; only the binder purified

| binding [1] | Substance | binding [2] |
| --- | --- | --- |
| no binding | BSA (unmodified) (from UniProt P02769 25-607) |  |
|  | Alexa Fluor 568‐labelled recombinant human CRT (from UniProt P27797 18-417) | no binding (tested: 1, 5 and 10 µg·mL^−1) |

From publication PMC8487046
